From PubChem BioAssay AID493014 (National Center for Advancing Translational Sciences (NCATS), 2011)
About 170 (0.05%) of roughly 340,000 compounds were called active. This list was built around the results that the source calls inconclusive (neither active nor inactive); the mix of calls is not that of the screen. Calls come from the whole dose curve; as a rule, active = well fitted inhibition curve with a large enough effect in the signal ratio, with a control signal flat (not every such curve was filed as active); inconclusive = small, poorly fitted or top-dose-only effect, or effect the other way, or a change in a side signal; inactive = flat fitted curve, though single readings scatter; the % refers to the signal ratio. Potencies beside an inconclusive call are fits to weak or partial responses and may not hold up.
Potency is the fitted concentration of half-maximal effect.

Assay: qHTS Assay to Find Inhibitors of Chronic Active B-Cell Receptor Signaling;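 for activity change, negative = inhibition: plate controls were basal doxycycline-induced cells for no effect and cells given 10 µM MG132 for full effect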
Settings: ABC-DLBCL IkBa-CBG/CBR reporter, luminescence ratio (green luciferase fused to IkBa over red control in TMD8 lymphoma cells), 4 h; activity change, negative = inhibition: at 46.1 µM (top of the series)
Summary of the method: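 Cell line TMD8 (human ABC DLBCL), stably expressing tet-inducible CBG68-IkBa fusion and CBR; IMDM/0.5% FBS; cpd up to 46 uM; dox induction, 4 h, 37C/5% CO2; dual luminescence; green/red ratio; MG132 control.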
For `CCN1CCc2c(sc(NC(=O)Nc3ccc(Cl)c(Cl)c3)c2C(N)=O)C1`, the Potency was inconclusive: 20.6 µM [falling, partial curve].
In the case of `Cc1ccccc1NC(=O)CC1SC(=Nc2ccc(O)cc2)NC1=O` (stereo not given), the “activity change, negative = inhibition” value is reported as inactive: 3.73%.
In the case of `CCCc1cc(=S)n2c([nH]c3ccccc32)c1C#N`, the Potency is reported as inconclusive: 25.1 µM [falling, partial curve].
In the case of `NS(=O)(=O)c1ccc(N=Nc2c(O)c(C(=O)O)cc3ccccc23)cc1`, the Potency is reported as inconclusive: 14.1 µM [rising, single point].
For `COc1ccc(CCNC(=O)C(=O)NCC2OCCN2S(=O)(=O)c2ccc(OC)c(OC)c2)cc1OC` (stereo not given), the activity change, negative = inhibition was inconclusive: -7.1%.
For `COc1ccc(C(=O)C[n+]2ccc(N(C)C)cc2)cc1`, the Potency was inconclusive: 6.31 µM [falling, single point].
For `O=C(COc1ccccc1)NC(=S)Nc1ccc(Br)cn1`, the Potency was inconclusive: 3.98 µM [rising, partial curve, poor fit].
For `O=C(CNC(=O)c1cccc(Br)c1)N/N=C/c1cccs1`, the “activity change, negative = inhibition” value was inactive: -4.24%.
In the case of `C/C=C(/C)C(=O)O[C@@H]1[C@H](OC(=O)C=C(C)C)c2c(ccc3ccc(=O)oc23)OC1(C)C`, the activity change, negative = inhibition is reported as inconclusive: -0.351%.
In the case of `O=C(c1ccc(N2CCOCC2)c([N+](=O)[O-])c1)N1CCCCC1`, the “activity change, negative = inhibition” value is reported as inactive: -1.32%.
In the case of `COc1cc(/C=C/C(=O)O)ccc1OS(=O)(=O)c1c(C)cc(C)cc1C`, the activity change, negative = inhibition is reported as inconclusive: 2.61%.
For `COc1cc(-c2nnc(NC(=O)CCS(=O)(=O)c3ccccc3)o2)cc(OC)c1OC`, the activity change, negative = inhibition was inconclusive: 0.39%.
For `O=S(=O)(Nc1cc(S(=O)(=O)N2CCOCC2)ccc1N1CCOCC1)c1ccc2c(c1)OCCO2`, the “activity change, negative = inhibition” value was inactive: 3.09%.
With `COCCOC(=O)c1[nH]c2c(c1C)C(=O)CC(c1ccc(N(C)C)cc1)C2` (stereo not given) the activity change, negative = inhibition was inconclusive: -5.11%.
With `O=C(CN1CCN(c2nc(-c3ccc(F)cc3)cs2)CC1)NCc1ccc2c(c1)OCO2` the Potency was inconclusive: 29.1 µM [falling, single point].
For `CCOC(=O)c1cccnc1SCc1cc(=O)n2ccccc2n1`, the activity change, negative = inhibition was inconclusive: -16.3%.
With `OCCN1CCN(c2ncnc3c2cnn3-c2cccc(Cl)c2)CC1` the activity change, negative = inhibition was inconclusive: 6.46%.
With `COc1ccc(OC)c(/C=C(\NC(=O)c2ccccc2)C(=O)N/N=C/c2ccc(C)s2)c1` the “activity change, negative = inhibition” value was inactive: 2.17%.
In the case of `CC(C)(C)NC(=O)C(c1ccc(O)cc1)N(C(=O)CCC(=O)Nc1nccs1)c1ccccc1F` (stereo not given), the activity change, negative = inhibition is reported as inconclusive: 11.8%.
For `O=C(NCc1ccccc1F)c1ccc2c(c1)OCO2`, the Potency was inconclusive: 23.1 µM [falling, single point].
With `COCCN(CC(=O)NCC1CCCO1)C(=O)CCC(=O)Nc1cc(C)ccn1` (stereo not given) the activity change, negative = inhibition was inconclusive: 13.9%.
In the case of `COc1cccc(C2CC(c3ccccc3)n3ncnc3N2)c1` (stereo not given), the activity change, negative = inhibition is reported as inconclusive: -21.3%.
For `C(=N\N(Cc1ccccc1)c1ccccc1)/c1ccco1`, the activity change, negative = inhibition was inconclusive: 4.37%.
With `COC(=O)C1=C(C)NC(C)=C(C(=O)OC)C1C(=O)OCC(=O)N1CCCCC1C` (stereo not given) the “activity change, negative = inhibition” value was inactive: 0.0782%.
In the case of `CC(C)(C(=O)O)c1ccc([C@H](O)CCCN2CCC(C(O)(c3ccccc3)c3ccccc3)CC2)cc1`, the “activity change, negative = inhibition” value is reported as inactive: -14.3%.
In the case of `COC(=O)c1ccc(NC(=O)COc2ccccc2OC)cc1`, the activity change, negative = inhibition is reported as inconclusive: -10.8%.
In the case of `CCCCCOc1ccc(C(O)C(CN2CCOCC2)c2ccccc2)cc1` (stereo not given), the “activity change, negative = inhibition” value is reported as inactive: 4.36%.
For `COc1ccc(NC(=O)C2CCCN(S(=O)(=O)c3cccc4cccnc34)C2)cc1` (stereo not given), the activity change, negative = inhibition was inconclusive: 5.67%.
In the case of `CC(=O)N1CCC(N(CCCOC(C)C)S(=O)(=O)c2ccc([N+](=O)[O-])cc2)CC1`, the activity change, negative = inhibition is reported as inconclusive: 7.41%.
In the case of `COc1cc(/C=C(\C#N)C(=O)NCC2CCCO2)ccc1OC(=O)c1ccco1` (stereo not given), the “activity change, negative = inhibition” value is reported as inactive: 1.13%.
With `CCCn1c(SCC(=O)Nc2nonc2C)nnc1-c1ccoc1C` the activity change, negative = inhibition was inconclusive: 4.16%.
For `CCc1ccc(NC(=O)COC(=O)/C=C/c2ccco2)cc1`, the activity change, negative = inhibition was inconclusive: 5.39%.
For `COc1cc(/C=C2/SC(=S)N(Cc3ccccc3)C2=O)ccc1O`, the activity change, negative = inhibition was inconclusive: 5.33%.
For `Cc1ccccc1-n1c(-c2ccc(=O)[nH]n2)n[nH]c1=S`, the activity change, negative = inhibition was inconclusive: -9.39%.
For `O=C(Nc1ccc(F)cc1)c1ccc2nsnc2c1`, the Potency was inconclusive: 12.6 µM [falling, partial curve, poor fit].
With `c1csc(CNc2ncnc3ccc(-c4ccoc4)cc23)c1` the Potency was inconclusive: 13 µM [rising, partial curve, poor fit] and the activity change, negative = inhibition was inconclusive: 11.6%.
For `Oc1ccc(/C=N/Nc2cccc3cccnc23)c(O)c1`, the Potency was inconclusive: 16.4 µM [falling, single point].
In the case of `O=C(CCSc1nnc(-c2ccc(O)cc2)o1)N1CCOCC1`, the activity change, negative = inhibition is reported as inconclusive: 17.4%.
In the case of `O=C(NCc1cnn(-c2ccccc2)c1)C1CCC(=O)N(C2CC2)C1` (stereo not given), the “activity change, negative = inhibition” value is reported as inactive: 1.15%.
